PubChem BioAssay AID1159578 – Peter MacCallum Cancer Centre – 2015
Purpose: 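Knock-downs that alter how fast lymphatic endothelial cells migrate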 (primary screen). Cells: human lymphatic endothelial cells. Reagents: siRNA pool against human genes, 40 nM. Time to read-out: 48 h after transfection. Measured: 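Cells stained with dye and imaged after a scratch; covered wound area and nuclei counted, duplicates averaged, migration set against mock wells and turned into a robust z-score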. Direction: migration robust z-score: higher = faster migration into the scratch; nuclei per well: higher = more cells in the well. Hit rule: 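Migration changed when robust z exceeds 2 or falls below -2 and mean nuclei number is at least 3300; otherwise not called changed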. Calls: active = migration changed; inactive = no migration change, or too few cells.
The deposit covers about 18,000 reagents; below is a part drawn at random. About 1,030 of all reagents (5.7%) count as active. 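Inactive calls also include pools with fewer than 3300 nuclei, whose migration was not assessed.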 The raw values are shown without normalisation. Entries without a mark were called inactive. Further read-outs or replicates are left out here.

gene knocked down | migration robust z-score | nuclei per well, duplicate mean
RPP25 | -0.7 | 5321
METTL6 | 0.42 | 6250
OR52R1 | 1.54 | 5582
LSM2 | -0.04 | 5605
PDILT | -0.87 | 6390
CT45A2 | 0.79 | 5588
NR3C1 | -1.55 | 5786
MED24 | 0.44 | 6151
TMEM63A | 1.67 | 5008
SLC35B2 | -1.08 | 5496
FAM53A | -0.85 | 4780
SOBP | -1.62 | 5148
RAB13 | 1.03 | 5182
CAMK2N2 | 0.05 | 4993
SHB | 2.08 (active) | 4078
SLC12A8 | -0.3 | 5700
FSTL3 | 1.22 | 5074
DEDD2 | 0.12 | 6069
UBE2Q1 | -0.11 | 6708
OR6N1 | 0.64 | 5742
CDH2 | -0.78 | 5806

6 entries from above, ordered by “migration robust z-score”, descending.
gene knocked down | migration robust z-score | nuclei per well, duplicate mean
TMEM63A | 1.67 | 5008
CT45A2 | 0.79 | 5588
MED24 | 0.44 | 6151
LSM2 | -0.04 | 5605
PDILT | -0.87 | 6390
NR3C1 | -1.55 | 5786

The results go on.
gene knocked down | migration robust z-score | nuclei per well, duplicate mean
MET | -0.39 | 6326
PRPF38A | 0.03 | 5745
TRIM50 | -0.16 | 6110
SEC23B | -0.11 | 4812
FNDC11 | -1.02 | 5838
UTP18 | -0.55 | 5322
B3GALT5 | -1.03 | 3574
FUT8 | 0.4 | 6918
LINC03040 | 0.12 | 5674
C17orf67 | -0.84 | 6220
NPFFR2 | 1.38 | 6160
CREBL2 | 0.7 | 5426
UFM1 | 0.9 | 5746
MATN1 | -0.29 | 5799
EEF1AKMT3 | 1.99 | 5074
PCP2 | 0.23 | 5908
EIF5A | 1.22 | 6758
CYLD | -1.01 | 4728
